Data from PubChem BioAssay AID248 (DTP/NCI, 2004).
The list is a part of this screen's results and no random one: it gathers tests that were run many times, whatever their T/C, doses with no T/C, and many T/C values between a quarter and a half above the control. Further doses and runs are listed elsewhere. T/C: endpoint of the treated group in % of that of the vehicle group. Some doses have a count of surviving animals in place of a T/C: the source holds a T/C of zero for them, seemingly a mark for toxic or unscored doses. Some doses without a T/C left all or most animals alive at the check, yet need not have been tolerated: the source hardly ever lists a survival T/C far under the control, and the zero likely stands for such cases as well. Survivors were counted at the toxicity check, usually on the fifth day, unless a day is given; later deaths do not show. Schedules are NCI's codes, taken here to give the interval after Q, in days (D) or hours (H), and the number of doses after X. Some schedule codes hold Z or #, which are not explained here. Some entries were tested several times; the values are given in rising order. For survival time, this PubChem deposit counts one and a half times the control or more as active, and values a quarter to a half above the control carry no call in these data; other NCI protocols may use other cut-offs. Some T/C values are followed by the survivors on the day toxicity was checked, most often the fifth; without a count, all were alive then. Brackets with × say how often a value occurs here.

System: L1210 leukemia ip in BDF1 mice, survival T/C
Experiment: NCI In Vivo Anticancer Drug Screen. Data for tumor model L1210 Leukemia (intraperitoneal) in B6D2F1 (BDF1) mice
Conditions: higher T/C = longer survival
[1] = T/C endpoint: median survival time, dose: 50.0 mg/kg/injection, schedule: Q01DX009 (ip), vehicle: saline

SMILES: N=[N+]=CC(=O)OCC(N)C(=O)O (stereo unspecified)
- T/C (T/C endpoint: mean survival time, dose: 64.0 mg/kg/injection, schedule: Q## X008 (ip), vehicle: saline): 138 % of control
- T/C (T/C endpoint: mean survival time, dose: 64.0 mg/kg/injection, schedule: Q## X024 (oral), vehicle: saline): 139 % of control
- T/C (T/C endpoint: mean survival time, dose: 66.0 mg/kg/injection, schedule: Q01DX001 (ip), vehicle: saline): 134 % of control
- T/C (T/C endpoint: mean survival time, dose: 80.0 mg/kg/injection, schedule: Q04DX002 (ip), vehicle: saline): 128 % of control
- survivor count (T/C endpoint: mean survival time, dose: 94.0 mg/kg/injection, schedule: Q## X004 (ip), vehicle: saline): 6 of 10
- survivor count (T/C endpoint: mean survival time, dose: 98.0 mg/kg/injection, schedule: Q01DX001 (ip), vehicle: saline): 4 of 9
- survivor count (T/C endpoint: mean survival time, dose: 100.0 mg/kg/injection, schedule: Q01DX001 (ip), vehicle: saline): 2 of 6
- survivor count (T/C endpoint: mean survival time, dose: 112.0 mg/kg/injection, schedule: Q01DX001 (ip), vehicle: saline): 0 of 6
- survivor count (T/C endpoint: mean survival time, dose: 112.0 mg/kg/injection, schedule: Q07DX003 (ip), vehicle: saline): 0 of 6
- survivor count (T/C endpoint: mean survival time, dose: 128.0 mg/kg/injection, schedule: Q01DX001 (ip), vehicle: saline): 2 of 10
- survivor count (T/C endpoint: mean survival time, dose: 128.0 mg/kg/injection, schedule: Q01DX001 (oral), vehicle: saline): 6 of 10
- survivor count (T/C endpoint: mean survival time, dose: 128.0 mg/kg/injection, schedule: Q01DX006 (iv), vehicle: saline): 0 of 6
- survivor count (T/C endpoint: mean survival time, dose: 128.0 mg/kg/injection, schedule: Q04DX003 (oral), vehicle: saline): 0 of 8
- survivor count (T/C endpoint: mean survival time, dose: 128.0 mg/kg/injection, schedule: Q## X002 (ip), vehicle: saline): 5 of 10
- survivor count (T/C endpoint: mean survival time, dose: 128.0 mg/kg/injection, schedule: Q## X003 (ip), vehicle: saline): 6 of 10
- survivor count (T/C endpoint: mean survival time, dose: 128.0 mg/kg/injection, schedule: Q## X003 (oral), vehicle: saline): 4 of 10 and 5 of 10
- survivor count (T/C endpoint: mean survival time, dose: 135.0 mg/kg/injection, schedule: Q01DX001 (ip), vehicle: saline): 3 of 10
- survivor count (T/C endpoint: mean survival time, dose: 192.0 mg/kg/injection, schedule: Q03DX006 (ip), vehicle: saline): 0 of 6
- survivor count (T/C endpoint: mean survival time, dose: 200.0 mg/kg/injection, schedule: Q01DX001 (ip), vehicle: saline): 0 of 6
- survivor count (T/C endpoint: mean survival time, dose: 256.0 mg/kg/injection, schedule: Q01DX001 (oral), vehicle: saline): 4 of 10
- survivor count (T/C endpoint: mean survival time, dose: 256.0 mg/kg/injection, schedule: Q01DX006 (iv), vehicle: saline): 0 of 6
- survivor count (T/C endpoint: mean survival time, dose: 400.0 mg/kg/injection, schedule: Q01DX001 (ip), vehicle: saline): 0 of 6
- T/C (T/C endpoint: median survival time, dose: 0.12 mg/kg/injection, schedule: Q03HX024 (ip), vehicle: water): 130 % of control [7 of 8 alive]
- T/C (T/C endpoint: median survival time, dose: 0.13 mg/kg/injection, schedule: Q03HX024 (ip), vehicle: water): 130 % of control
- T/C (T/C endpoint: median survival time, dose: 1.0 mg/kg/injection, schedule: Q03HX024 (ip), vehicle: water, evaluated on day 5): 166 and 182 % of control
- T/C (T/C endpoint: median survival time, dose: 1.0 mg/kg/injection, schedule: Q03HX024 (ip), vehicle: water, evaluated on day 30): 182 % of control
- T/C (T/C endpoint: median survival time, dose: 1.0 mg/kg/injection, schedule: Q03HX024 (ip), vehicle: water, evaluated on day 33): 166 % of control
- T/C (T/C endpoint: median survival time, dose: 2.0 mg/kg/injection, schedule: Q03HX024 (ip), vehicle: water, evaluated on day 5): 159 and 171 % of control
- T/C (T/C endpoint: median survival time, dose: 2.0 mg/kg/injection, schedule: Q03HX024 (ip), vehicle: water, evaluated on day 30): 159 % of control
- T/C (T/C endpoint: median survival time, dose: 2.0 mg/kg/injection, schedule: Q03HX024 (ip), vehicle: water, evaluated on day 33): 171 % of control
- T/C (T/C endpoint: median survival time, dose: 4.0 mg/kg/injection, schedule: Q01DX009 (ip), vehicle: water): 130 % of control
- T/C (T/C endpoint: median survival time, dose: 4.0 mg/kg/injection, schedule: Q03HX024 (ip), vehicle: water, evaluated on day 5): 166 and 168 % of control
- T/C (T/C endpoint: median survival time, dose: 4.0 mg/kg/injection, schedule: Q03HX024 (ip), vehicle: water, evaluated on day 30): 166 % of control
- T/C (T/C endpoint: median survival time, dose: 4.0 mg/kg/injection, schedule: Q03HX024 (ip), vehicle: water, evaluated on day 33): 168 % of control [6 of 8 alive]
- T/C (T/C endpoint: median survival time, dose: 6.25 mg/kg/injection, schedule: Q01DX009 (ip), vehicle: saline): 131, 135 [5 of 6 alive], 137, 140 % of control
- T/C (T/C endpoint: median survival time, dose: 8.0 mg/kg/injection, schedule: Q01DX009 (ip), vehicle: water): 140 % of control
- T/C (T/C endpoint: median survival time, dose: 8.0 mg/kg/injection, schedule: Q03HX024 (ip), vehicle: water, evaluated on day 5): 84 and 130 % of control
- T/C (T/C endpoint: median survival time, dose: 8.0 mg/kg/injection, schedule: Q03HX024 (ip), vehicle: water, evaluated on day 33): 130 % of control
- survivor count (T/C endpoint: median survival time, dose: 8.0 mg/kg/injection, schedule: Q03HX024 (ip), vehicle: water): 7 of 8
- T/C (T/C endpoint: median survival time, dose: 12.5 mg/kg/injection, schedule: Q01DX009 (ip), vehicle: saline): 150 (2×), 156, 165 % of control
- T/C (T/C endpoint: median survival time, dose: 16.0 mg/kg/injection, schedule: Q01DX009 (ip), vehicle: water): 135 % of control
- survivor count (T/C endpoint: median survival time, dose: 16.0 mg/kg/injection, schedule: Q03HX024 (ip), vehicle: water): 5 of 8
- T/C (T/C endpoint: median survival time, dose: 25.0 mg/kg/injection, schedule: Q01DX009 (ip), vehicle: saline): 90, 100, 137 % of control (2×)
- survivor count (T/C endpoint: median survival time, dose: 32.0 mg/kg/injection, schedule: Q03HX024 (ip), vehicle: water): 0 of 8
- T/C [1]: 100 % of control
- survivor count [1]: 2 of 6, 5 of 6, 6 of 6
